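Phenotypic screen: M. tuberculosis growth, glucose 7H9 medium, 3 days; the read-out is not stated. Compounds at 50 µM. The record gives no direction; compounds that gave an IC50 in retests scored well above the rest, so higher reads as more growth inhibition. About 69,000 compounds were tested under these conditions; 1.1% (about 760) showed 50% or more at least once.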

Results are given as percent effect.
The record does not define 0% and 100%; most values in the screen are far below 50% and negative numbers occur (in some assays of this library far below -100).
Compounds were drawn at random from those tested, without regard to their results.
Two or more numbers in one place are separate tests of the same structure; such repeats can differ widely.

* O=C1NC2(CCN(Cc3ccccc3Cl)CC2)CC1c1ccccc1 (configuration not stated) | 4.333%
* CC(C)C(C#N)N1CCN(C(=O)c2cc(-c3ccccn3)no2)CC1 (configuration not stated) | 16.62% & 2.064%
* N#CCCSc1sc2c(O)cc(O)nc2c1C#N | -28.45%
* O=C(c1ccccn1)N1CCc2nc(-c3cnccn3)nc(O)c2C1 | 4.922%
* O=C(Cn1cccn1)N1CCC(Oc2ccc(C(F)(F)F)cn2)CC1 | 7.378%
* O=C(C1CCCC1)N1CCOc2cccc(F)c21 | 15.4%
* O=C(O)C1CCCN1c1nc(C2CC2)cc(C(F)(F)F)n1 (configuration not stated) | 18.85%
* CC(=O)N1CCC12CCN(Cc1ccco1)CC2.O=C(O)C(F)(F)F | -19.31%
* Cc1cnc(CCNC(Cc2ccncc2)C(F)(F)F)s1 (configuration not stated) | -5.36%
* CC(C)Nc1ncc(-c2csc(NC(=O)C[C@H]3COCCN3)n2)cn1 | 21.21%
* CCc1nnc2n1CCN(CC(=O)N(CC)C1=CCCCC1)C2 | -6.014%
* [H][C@@]12CCN(c3cc(Sc4cccs4)nc(N)n3)C[C@@]([H])(CC1)N2C | 38.11%
* Cc1cnn(C2CCCN(C(=O)c3cnc4ccccc4n3)C2)c1 (configuration not stated) | -1.465%
* CN(C)c1cc(C(F)(F)F)cc(-c2ccc(C(=O)O)cc2)n1 | -3.119% & 8.112%
* Cn1nc(COc2cccnc2)c2c1CCN(Cc1ccco1)C2.O=C(O)C(F)(F)F.O=C(O)C(F)(F)F | -42.73%
* Cc1ccc(CN2CC(C(=O)N3CCCC3)C3(CCOCC3)C2)s1.O=C(O)C(F)(F)F (configuration not stated) | 3.807%
* CCSc1cc(C(=O)NC2CCN(C(=O)c3ccncc3)CC2)ccn1 | 10.65%
* COc1ccc(C2CCCN2C(=O)NCCn2ccnc2)cc1 (configuration not stated) | 3.27%
* Cc1ccc(CN(C)Cc2cc(C3CC3)[nH]n2)c(O)n1 | -6.277%
* C[C@H]1CN2C[C@H](O)CC2CN1Cc1ccncc1 (some centres not stated) | 21.32%
* [H][C@]12CCN(C(=O)CC(C)C)CC[C@@]1([H])S(=O)(=O)CCN2S(C)(=O)=O | 13.96%
* O=C(O)C(F)(F)F.O=C(O)C(F)(F)F.[H][C@@]12CN(Cc3cccs3)CCC[C@]1(C(=O)OCC)CN(C(C)C)C2 | -9.708%
* Cc1cc(NCC2CCS(=O)(=O)C2)n2nc(C)cc2n1 (configuration not stated) | 13.98%
* [H][C@@]12OCCN(C(=O)c3ccc(C)o3)[C@@]1([H])CC[C@H]2OCC1CCOCC1 | 17.26%
* Cn1ccnc1CN1CCN(CC(=O)NCC(F)(F)F)CC1 | 3.558%
* O=C(Nc1nccs1)C1CCN(Cc2cccc3c2OCCO3)CC1 | 34.84%
* Cn1ncc2c(=O)[nH]c(CN3CCCC3CC3CCCCC3)nc21 (configuration not stated) | 0.1227%
* CC(C)(C)c1nc(CN2CCCC2Cn2cccn2)no1 (configuration not stated) | 1.362%
* CCc1ccc(S(=O)(=O)N2CCCC3(CCCN3S(C)(=O)=O)C2)cc1 (configuration not stated) | -7.074%
* O=C(O)c1ccc(COc2cccc(Cl)c2)s1 | 16.07%
* Cc1nc(CCN(C)C(=O)CN2C(=O)OC[C@@H]2c2ccccc2)no1 | -8.968% & -7.859%
* O=S(=O)(NCCC(O)c1ccoc1)c1ccc(Cl)s1 (configuration not stated) | 4.845%
* CC(=O)N1CCCCC1c1cc(CO)[nH]n1 (configuration not stated) | 13.82%
* O=C(NCCc1nncn1C1CC1)c1cc2ccccn2c1 | -4.502% & -29.92%
* CC(C)=CCN1CCC(c2nnc(CN3CCN(C)CC3)n2C)CC1 | -42.59%
* Cc1cc(CNc2ccccc2N2CCCCC2)no1 | 11.88%
* Cc1nn2c(NCC(N)=O)cc(-c3ccccc3)nc2c1C | -40.64%
* COc1ccc(CN2CCN(CCn3ccnc3)CC2)cc1F | 24.6%
* COC(=O)CCC(=O)N1CCc2nc(C(=O)N(C)C)sc2CC1 | -10.88% & -3.808%
* CCSCCC(C)N(C)C(=O)c1ccc2nncn2c1 (configuration not stated) | -12.59%
* [H][C@]12CCC(=O)N(c3ccccc3)[C@@]1([H])CCN2C(=O)N1CCOCC1 | -14.37%
* CC(=O)Nc1ccc2c(c1)C1(CCOCC1)C(=O)N2c1ccsc1 | -7.266% & -14.03%
* [H][C@@]12OCCN(S(=O)(=O)CC)[C@@]1([H])CC[C@H]2OCC1CCCC1 | 27.8%
* N#Cc1ccc(CN2CCCC3(Cc4ccccc4CNC3=O)C2)cc1 (configuration not stated) | 11.16%
* CC(C)(CNC(=O)CCOc1cccc(F)c1)C(N)=O | -43.81%
* COCc1cc(N(C)Cc2c(C)nn(C)c2C)n2nccc2n1 | -19.17%
* CC1CN(CC(=O)NCCc2ccccc2)CCN1c1nccs1 (configuration not stated) | 1.042%
* CC(C)NC(=O)C1(Cc2ccccc2-c2ccccc2)CCCNC1 (configuration not stated) | 14.01%
* CC(C)n1ccnc1CN1CCCN(C(=O)c2cnn(C)c2)CC1 | 2.078%
* O=C(c1cccs1)N1CCc2ncc(Cn3cncn3)n2CC1 | -33.8%
* Cc1cnn(CCNC(C)C(=O)Nc2ccc(Cl)cn2)c1 (configuration not stated) | -8.374% & 4.531%
* O=C(O)C(F)(F)F.[H][C@]12CCC[C@@]1(COc1ccccn1)CN(C(=O)C1CCOCC1)C2 | -9.632%
* Cc1cc2ccncc2n1CC1(O)CCN(C(=O)c2ccncc2)CC1 | 22.25%
* Cc1cc(NCCc2nnc(N)s2)nc(-c2cccnc2)n1 | 17.21% & 0.6157%
* COCc1cc(CNc2cnn(CC(F)F)c2)ccc1OC | -3.28%
* O=C(CCS(=O)(=O)c1ccccc1)NCCCn1cccn1 | 4.383%
* CC(C)c1nn(C)c(Cl)c1CNCC(=O)N1CCN(C)CC1.Cl | -13.79%

Source: ChEMBL document CHEMBL3988442, “University of Dundee, Small-Polar-MMV Screening Library” (2021).